Data: US20100113613A1, “CYCLOHEXANE POLYALCOHOL FORMULATION FOR TREATMENT OF DISORDERS OF PROTEIN AGGREGATION” (WARATAH PHARMACEUTICALS, priority 2006, published 2010)

Tests used:
[1] = for CSF myo-inositol concentration in comparison to untreated controls: mice, ad libitum in drinking water 10 mg/ml, P=0.35 (myo) and 0.7 (scyllo)
[2] = Brain and CSF levels of inositols after one month ad libitum dosing (GC/MS), Example 2; assay type: in vivo; details: TgCRND8 mice
Method: Study drugs were administered either at 30 mg/kg by oral gavage, or ad libitum by dissolution in drinking water. For administration in drinking water, study drugs were dissolved at 10 mg/ml. The average amount of water taken from the bottle was 3 ml daily per animal. The average mouse weight was 33 g. […] Quantification of scyllo-cyclohexanehexyl and myo-inositol. Scyllo-cyclohexanehexyl and myo-cyclohexanehexyl levels in the brain and CSF were analyzed using gas chromatography/mass spectrometry. D-chiro-inositol was used as an internal control, as it is not present in these biological samples. Derivatization: To increase the volatility and thermal stability of these compounds and to allow for proper peak separation, these samples need to first be derivatized. The derivatization was adapted from a method presented previously (Shetty, H U, et al, 1995, Anal. Biochem. 224:279-85), where the hydroxyl groups of the cyclohexanehexyl were replaced with acetyl groups. […] Similarly, a 5-15 μl sample of CSF was mixed with 1 ml of methanol and allowed to stand at room temperature for 5 minutes. The resulting suspension was centrifuged (5 min, 5000×g) and the supernatant transferred to a glass tube (Teflon-lined cap). […] These samples were then evaporated to complete dryness (Speedvac; 60° C.). […] This mixture was flushed with dry nitrogen, securely capped and the tubes heated (80° C.; 30 min). Following derivatization, samples were cooled (RT) and the unreacted acetylating reagent evaporated using a steady stream of nitrogen gas. The derivatized products were re-dissolved (4 ml; hexane-ethyl acetate (80:20, v/v)) and washed with 1 ml of 5% sodium hydrogencarbonate solution. […] The residue was reconstituted in 100 μl; ethyl acetate. 1 μL of this was injected into the GC/MS system. A similar procedure was followed using stock concentrations of scyllo- and myo-cyclohexanehexols, which were then used to generate concentration curves (in this case the internal standard was derivatized separately and then added). GC/MS was performed using a Perkin Elmer TurboMass Autosystem XL, with a quadrupole mass spectrometer and electron ionization. Gas chromatography was performed using a 30 m×0.25 mm×0.25 μm ZB 5 (5% diphenyl/95% dimethylpolysiloxane) column, using the carrier gas Helium (1 ml/min). Samples were injected with the split set to 50 at 1 min and 0 at 5 min, the injector temperature was set at 300° C. and an initial oven temperature of 80° C. After a hold of 1 min, the temperature was ramped at 45° C./min to 187° C. and held there for 15 min. […] Sample peaks were analyzed using selected-ion monitoring, using m/z 168 for determining cyclohexanehexyl levels in the brain and CSF and m/z 373 for determining cyclohexanehexyl levels in plasma, as monitoring the larger ion reduced noise. […]

[3] = test system: phosphatidylinositol lipids; experiment: Incorporation into phosphatidylinositol lipids within the brain, Example 2; assay type: in vivo; details: TgCRND8 mice, ad libitum dosing for one month

Molecule | CSF myo-inositol concentration in comparison to untreated controls [1] | decrease in myo-inositol in the brain ([1]; scyllo-inositol ad libitum treatment, P<0.001) | CSF levels of scyllo-cyclohexanehexyl vs untreated ([2]; myo-cyclohexanehexyl ad libitum for one month) | levels of scyllo-cyclohexanehexyl in brain, lower than untreated ([2]; myo-cyclohexanehexyl ad libitum for one month, p=0.008) | decrease in brain scyllo-inositol levels ([1]; myo-inositol ad libitum treatment, P=0.008) | decrease of myo-cyclohexanehexyl level in brain vs untreated ([2]; scyllo-cyclohexanehexyl ad libitum for one month, p<0.001) | CSF levels of myo-cyclohexanehexyl vs untreated ([2]; scyllo-cyclohexanehexyl ad libitum for one month, p=0.7) | incorporation into phosphatidylinositol lipids of the brain [3] | levels of chiro- and myo-cyclohexanehexyl in the phosphatidylinositol lipids [3]
OC1C(O)C(O)C(O)C(O)C1O (stereo not shown) [AZD-103, scyllo-inositol] | did not significantly alter | 0.7 fold | – | – | – | – | – | – | –
O[C@H]1[C@H](O)[C@@H](O)[C@H](O)[C@@H](O)[C@H]1O [myo-inositol, reference compound] | did not significantly alter | – | not significantly different from untreated animals | 80% | 5.4 fold | – | – | – | –
scyllo-inositol [AZD-103] | – | – | – | – | – | 30% | not significantly different from untreated animals | No scyllo-cyclohexanehexyl was incorporated into the lipids | unaffected
